The list shows a part of the results.
What was measured:
Experiment in all cases: log2 fold change, soluble protein after heating vs DMSO (PISA); higher = thermal stabilisation; K562 lysate, 10 uM; active = over 0.2 and 3.5 SD of the protein, either way, in both replicates (recomputed)
nilotinib = compound: Cc1cn(-c2cc(NC(=O)c3ccc(C)c(Nc4nccc(-c5cccnc5)n4)c3)cc(C(F)(F)F)c2)cn1 [nilotinib]
Summary of the method: (§1)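 Dounce homogenisation of K562 pellets in PBS pH 7.4 with 1 mM MgCl2 produced a crude extract, used at 1 mg/mL protein. Exposure to 10 μM compound lasted 30 min, and aliquots were then heated for 3 min across 48°C-58°C, pooled and brought to 0.5% NP-40 at 4°C. The supernatant after 21,000xg for 90 min was quantified by TMTpro 16plex LC-MS/MS with channel sums equalised. Duplicate values are given as log-two fold change in thermal stability relative to solvent controls.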

The chains behind the UniProt entries cited, without tags or fusion partners. Where a name states a change or a piece, a line headed by the entry shows the natural chain unless it says otherwise.
UniProt Q6ZW49, whole entry, looked up: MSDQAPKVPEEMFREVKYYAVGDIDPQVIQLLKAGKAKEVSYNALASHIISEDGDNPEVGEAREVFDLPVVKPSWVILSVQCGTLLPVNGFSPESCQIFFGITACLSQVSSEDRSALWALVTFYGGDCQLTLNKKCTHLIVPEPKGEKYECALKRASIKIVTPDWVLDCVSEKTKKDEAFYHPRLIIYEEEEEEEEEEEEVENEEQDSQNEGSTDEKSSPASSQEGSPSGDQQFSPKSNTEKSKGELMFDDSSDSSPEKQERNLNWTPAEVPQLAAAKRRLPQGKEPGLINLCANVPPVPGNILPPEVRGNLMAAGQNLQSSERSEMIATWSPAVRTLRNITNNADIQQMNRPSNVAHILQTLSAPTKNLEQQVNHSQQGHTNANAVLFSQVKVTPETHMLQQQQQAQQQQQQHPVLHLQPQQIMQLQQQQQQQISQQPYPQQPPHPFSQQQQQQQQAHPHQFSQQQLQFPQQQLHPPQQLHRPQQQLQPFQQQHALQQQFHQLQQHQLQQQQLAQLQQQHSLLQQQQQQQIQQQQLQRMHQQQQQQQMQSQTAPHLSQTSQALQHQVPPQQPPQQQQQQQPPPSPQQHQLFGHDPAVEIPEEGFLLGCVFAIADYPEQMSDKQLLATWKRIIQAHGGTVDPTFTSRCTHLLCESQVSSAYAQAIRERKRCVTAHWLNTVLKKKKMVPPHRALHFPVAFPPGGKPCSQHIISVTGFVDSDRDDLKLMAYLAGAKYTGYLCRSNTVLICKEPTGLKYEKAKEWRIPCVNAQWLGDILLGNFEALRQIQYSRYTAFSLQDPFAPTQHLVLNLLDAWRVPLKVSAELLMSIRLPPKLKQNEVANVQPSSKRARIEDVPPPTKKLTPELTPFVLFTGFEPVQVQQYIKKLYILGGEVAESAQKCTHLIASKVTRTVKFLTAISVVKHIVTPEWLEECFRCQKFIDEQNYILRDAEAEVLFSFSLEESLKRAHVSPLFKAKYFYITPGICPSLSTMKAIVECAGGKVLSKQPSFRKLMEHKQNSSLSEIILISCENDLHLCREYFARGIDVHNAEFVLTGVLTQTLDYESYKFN
UniProt P07737, whole entry, looked up: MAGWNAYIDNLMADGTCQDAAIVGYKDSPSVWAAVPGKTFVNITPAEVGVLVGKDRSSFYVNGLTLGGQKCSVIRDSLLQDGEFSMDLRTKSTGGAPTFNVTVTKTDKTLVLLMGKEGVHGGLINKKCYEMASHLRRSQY
UniProt Q8N5Y8: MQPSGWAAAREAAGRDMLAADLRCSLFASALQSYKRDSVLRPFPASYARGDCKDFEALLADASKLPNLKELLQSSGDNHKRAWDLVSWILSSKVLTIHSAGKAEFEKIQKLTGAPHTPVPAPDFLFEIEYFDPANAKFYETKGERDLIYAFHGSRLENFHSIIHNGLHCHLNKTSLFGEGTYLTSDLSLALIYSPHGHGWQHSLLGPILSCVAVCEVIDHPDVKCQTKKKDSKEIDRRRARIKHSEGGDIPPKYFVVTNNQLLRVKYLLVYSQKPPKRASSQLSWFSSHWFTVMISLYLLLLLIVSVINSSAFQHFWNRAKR
UniProt Q9BYE7: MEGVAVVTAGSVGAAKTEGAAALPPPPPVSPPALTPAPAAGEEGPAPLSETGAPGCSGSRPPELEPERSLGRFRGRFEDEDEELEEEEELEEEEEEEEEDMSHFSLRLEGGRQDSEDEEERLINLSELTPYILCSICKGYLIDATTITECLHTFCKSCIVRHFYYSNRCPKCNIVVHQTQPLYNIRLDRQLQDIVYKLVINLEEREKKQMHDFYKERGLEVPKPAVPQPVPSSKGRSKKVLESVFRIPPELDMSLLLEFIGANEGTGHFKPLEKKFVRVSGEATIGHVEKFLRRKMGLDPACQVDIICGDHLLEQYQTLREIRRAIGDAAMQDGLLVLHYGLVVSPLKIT
UniProt Q5VU43: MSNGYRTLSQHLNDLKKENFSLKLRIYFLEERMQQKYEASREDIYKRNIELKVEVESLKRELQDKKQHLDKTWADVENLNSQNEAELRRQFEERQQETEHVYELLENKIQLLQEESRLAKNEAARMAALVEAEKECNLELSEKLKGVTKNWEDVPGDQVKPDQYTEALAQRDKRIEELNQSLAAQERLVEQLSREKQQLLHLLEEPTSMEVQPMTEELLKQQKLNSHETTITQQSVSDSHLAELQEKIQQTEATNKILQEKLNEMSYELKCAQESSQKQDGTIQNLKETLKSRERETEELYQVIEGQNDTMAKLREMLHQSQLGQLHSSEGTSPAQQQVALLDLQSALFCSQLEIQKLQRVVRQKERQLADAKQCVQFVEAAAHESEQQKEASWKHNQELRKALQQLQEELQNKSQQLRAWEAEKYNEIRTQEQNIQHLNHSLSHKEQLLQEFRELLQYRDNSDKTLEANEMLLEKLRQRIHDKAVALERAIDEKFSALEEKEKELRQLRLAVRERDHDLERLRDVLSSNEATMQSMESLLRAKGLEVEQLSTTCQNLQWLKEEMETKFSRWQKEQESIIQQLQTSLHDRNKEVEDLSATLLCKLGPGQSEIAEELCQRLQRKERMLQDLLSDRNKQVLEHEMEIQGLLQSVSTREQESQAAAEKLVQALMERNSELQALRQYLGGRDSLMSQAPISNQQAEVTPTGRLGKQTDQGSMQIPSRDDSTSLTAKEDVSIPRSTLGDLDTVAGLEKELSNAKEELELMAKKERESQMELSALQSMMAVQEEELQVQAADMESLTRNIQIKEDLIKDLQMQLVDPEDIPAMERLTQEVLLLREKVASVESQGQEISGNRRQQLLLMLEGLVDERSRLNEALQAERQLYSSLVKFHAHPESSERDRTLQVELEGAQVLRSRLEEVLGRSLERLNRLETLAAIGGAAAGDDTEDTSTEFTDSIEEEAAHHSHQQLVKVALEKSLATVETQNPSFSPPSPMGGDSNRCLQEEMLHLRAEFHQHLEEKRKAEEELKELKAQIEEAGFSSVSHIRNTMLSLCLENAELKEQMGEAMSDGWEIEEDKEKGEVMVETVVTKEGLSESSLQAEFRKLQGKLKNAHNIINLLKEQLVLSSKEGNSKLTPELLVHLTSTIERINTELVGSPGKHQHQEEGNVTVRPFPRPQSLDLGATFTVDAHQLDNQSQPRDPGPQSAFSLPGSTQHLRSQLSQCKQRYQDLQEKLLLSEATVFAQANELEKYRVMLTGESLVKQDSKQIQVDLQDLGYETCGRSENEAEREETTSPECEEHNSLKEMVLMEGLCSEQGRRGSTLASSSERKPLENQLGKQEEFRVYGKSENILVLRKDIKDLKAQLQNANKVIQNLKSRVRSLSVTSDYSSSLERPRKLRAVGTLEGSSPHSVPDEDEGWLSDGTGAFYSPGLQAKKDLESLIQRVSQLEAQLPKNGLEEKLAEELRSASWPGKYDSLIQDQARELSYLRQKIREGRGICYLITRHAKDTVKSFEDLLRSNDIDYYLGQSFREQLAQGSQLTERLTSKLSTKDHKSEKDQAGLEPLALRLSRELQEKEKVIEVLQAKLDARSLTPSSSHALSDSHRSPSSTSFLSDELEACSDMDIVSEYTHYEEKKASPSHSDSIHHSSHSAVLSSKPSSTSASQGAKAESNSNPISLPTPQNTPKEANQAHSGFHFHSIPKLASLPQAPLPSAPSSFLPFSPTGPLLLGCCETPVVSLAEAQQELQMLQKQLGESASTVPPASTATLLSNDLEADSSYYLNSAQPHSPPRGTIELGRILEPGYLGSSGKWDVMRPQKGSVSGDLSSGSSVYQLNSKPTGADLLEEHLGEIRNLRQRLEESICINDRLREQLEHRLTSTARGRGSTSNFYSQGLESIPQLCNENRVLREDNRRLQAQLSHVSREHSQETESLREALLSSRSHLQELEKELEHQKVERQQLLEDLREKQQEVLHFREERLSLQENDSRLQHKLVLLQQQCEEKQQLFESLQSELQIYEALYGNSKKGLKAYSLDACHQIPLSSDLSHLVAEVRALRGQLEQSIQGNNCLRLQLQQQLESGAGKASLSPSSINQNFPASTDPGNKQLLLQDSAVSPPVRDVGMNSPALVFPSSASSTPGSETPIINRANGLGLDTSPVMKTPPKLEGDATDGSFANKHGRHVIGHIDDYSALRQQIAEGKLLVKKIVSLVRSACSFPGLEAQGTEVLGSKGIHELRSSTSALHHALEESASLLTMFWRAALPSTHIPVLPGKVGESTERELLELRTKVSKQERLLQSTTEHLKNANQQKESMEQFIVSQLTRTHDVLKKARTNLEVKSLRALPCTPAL
UniProt Q29RF7: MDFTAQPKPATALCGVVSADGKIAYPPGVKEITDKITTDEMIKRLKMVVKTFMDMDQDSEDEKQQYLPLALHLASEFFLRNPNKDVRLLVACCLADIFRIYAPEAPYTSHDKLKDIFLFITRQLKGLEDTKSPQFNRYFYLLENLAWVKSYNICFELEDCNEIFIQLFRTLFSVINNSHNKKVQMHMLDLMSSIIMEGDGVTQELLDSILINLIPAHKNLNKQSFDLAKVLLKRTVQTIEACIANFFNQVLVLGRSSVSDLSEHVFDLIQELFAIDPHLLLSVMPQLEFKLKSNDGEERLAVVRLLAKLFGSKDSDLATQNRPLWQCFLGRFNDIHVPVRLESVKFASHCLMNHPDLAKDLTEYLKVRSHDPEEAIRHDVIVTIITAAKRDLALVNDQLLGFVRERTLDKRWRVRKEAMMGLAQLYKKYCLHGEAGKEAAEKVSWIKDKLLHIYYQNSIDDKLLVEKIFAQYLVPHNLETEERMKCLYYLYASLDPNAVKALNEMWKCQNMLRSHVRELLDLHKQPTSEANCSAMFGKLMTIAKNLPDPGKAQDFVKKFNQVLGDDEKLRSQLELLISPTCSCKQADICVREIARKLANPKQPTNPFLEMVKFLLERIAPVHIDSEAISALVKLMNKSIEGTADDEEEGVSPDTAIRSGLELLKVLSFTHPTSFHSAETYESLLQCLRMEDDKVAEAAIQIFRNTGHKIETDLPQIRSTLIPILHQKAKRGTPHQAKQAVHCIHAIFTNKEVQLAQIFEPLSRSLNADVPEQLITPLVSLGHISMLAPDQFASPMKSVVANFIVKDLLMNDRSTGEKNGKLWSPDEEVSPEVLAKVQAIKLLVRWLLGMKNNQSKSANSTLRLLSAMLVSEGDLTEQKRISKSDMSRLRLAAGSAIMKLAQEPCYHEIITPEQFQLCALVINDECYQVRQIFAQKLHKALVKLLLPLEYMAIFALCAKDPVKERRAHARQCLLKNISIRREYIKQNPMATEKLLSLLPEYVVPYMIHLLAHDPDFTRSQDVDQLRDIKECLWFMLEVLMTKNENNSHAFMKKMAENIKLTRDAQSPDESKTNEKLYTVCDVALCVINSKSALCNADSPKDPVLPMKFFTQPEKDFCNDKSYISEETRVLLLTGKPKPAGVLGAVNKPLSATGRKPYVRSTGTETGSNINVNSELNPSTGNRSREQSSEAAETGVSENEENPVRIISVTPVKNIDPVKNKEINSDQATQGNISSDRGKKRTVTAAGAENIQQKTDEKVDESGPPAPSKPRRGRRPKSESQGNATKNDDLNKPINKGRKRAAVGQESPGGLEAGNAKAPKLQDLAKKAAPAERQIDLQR
UniProt P30039: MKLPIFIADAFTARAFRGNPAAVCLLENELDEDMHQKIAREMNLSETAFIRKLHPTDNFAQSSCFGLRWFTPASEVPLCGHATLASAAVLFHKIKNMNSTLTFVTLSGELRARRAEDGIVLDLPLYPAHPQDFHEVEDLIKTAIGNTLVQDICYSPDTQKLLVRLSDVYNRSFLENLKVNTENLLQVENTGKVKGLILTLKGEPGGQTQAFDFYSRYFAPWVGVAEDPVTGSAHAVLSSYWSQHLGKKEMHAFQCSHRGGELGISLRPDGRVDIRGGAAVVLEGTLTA
UniProt Q32M88: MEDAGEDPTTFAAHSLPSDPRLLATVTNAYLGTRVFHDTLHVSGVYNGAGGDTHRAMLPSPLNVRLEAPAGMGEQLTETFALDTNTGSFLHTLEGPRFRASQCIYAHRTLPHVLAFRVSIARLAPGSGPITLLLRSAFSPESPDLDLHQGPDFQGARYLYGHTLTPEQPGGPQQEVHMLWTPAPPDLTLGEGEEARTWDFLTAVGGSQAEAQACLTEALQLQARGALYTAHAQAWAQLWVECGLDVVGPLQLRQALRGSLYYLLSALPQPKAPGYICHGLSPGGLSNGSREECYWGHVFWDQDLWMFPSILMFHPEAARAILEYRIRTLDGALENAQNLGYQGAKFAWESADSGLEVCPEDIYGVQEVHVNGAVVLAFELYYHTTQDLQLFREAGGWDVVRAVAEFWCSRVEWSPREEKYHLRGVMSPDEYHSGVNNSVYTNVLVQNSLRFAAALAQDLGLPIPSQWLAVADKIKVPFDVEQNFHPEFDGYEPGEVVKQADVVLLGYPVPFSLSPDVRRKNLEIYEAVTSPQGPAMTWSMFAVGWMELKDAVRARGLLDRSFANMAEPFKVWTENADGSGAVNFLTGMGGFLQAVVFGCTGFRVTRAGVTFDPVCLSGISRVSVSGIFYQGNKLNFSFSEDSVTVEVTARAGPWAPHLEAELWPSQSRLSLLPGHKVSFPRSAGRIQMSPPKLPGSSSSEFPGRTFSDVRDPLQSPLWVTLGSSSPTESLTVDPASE

[1] = compound: Cc1nc(Nc2n[nH]c3c2CN(C(=O)N[C@H](CN(C)C)c2ccccc2)C3(C)C)c2sccc2n1
Summary of the method: as §1

dasatinib = compound: Cc1nc(Nc2ncc(C(=O)Nc3c(C)cccc3Cl)s2)cc(N2CCN(CCO)CC2)n1 [dasatinib]
Summary of the method: as §1

[2] = compound: Cc1ncc(-c2ccnc(Nc3ccc(S(C)(=O)=O)cc3)n2)n1C(C)C
Summary of the method: as §1

[3] = compound: Cn1cc(-c2ccc3c(c2)CCN3C(=O)Cc2cccc(C(F)(F)F)c2)c2c(N)ncnc21
Summary of the method: as §1

quisinostat = compound: Cn1cc(CNCC2CCN(c3ncc(C(=O)NO)cn3)CC2)c2ccccc21 [quisinostat]
Summary of the method: as §1

tipifarnib = compound: Cn1cncc1[C@@](N)(c1ccc(Cl)cc1)c1ccc2c(c1)c(-c1cccc(Cl)c1)cc(=O)n2C [tipifarnib]
Summary of the method: as §1

[4] = compound: NC(=O)Nc1cc(-c2cccc(F)c2)sc1C(=O)N[C@H]1CCCNC1
Summary of the method: as §1

[5] = compound: NC(=O)c1cnc(N[C@@H]2CCCC[C@@H]2N)nc1Nc1cccc(-n2nccn2)c1
Summary of the method: as §1

[6] = compound: NC1(c2ccc(-c3nc4ccn5c(=O)[nH]nc5c4cc3-c3ccccc3)cc2)CCC1
Summary of the method: as §1

Measured: log2 fold change

PEX5 isoform 4 (UniProt P50542)
inactive: nilotinib -0.023 | [1] -0.043 | dasatinib -0.084 | [2] 0.008 | [3] 0.009 | quisinostat -0.011 | tipifarnib 0.012 | [4] -0.012 | [5] 0.129 | [6] -0.029

PAXIP1 (UniProt Q6ZW49)
inactive: nilotinib -0.041 | [1] -0.112 | dasatinib 0.044 | [2] 0.018 | [3] -0.033 | quisinostat -0.068 | tipifarnib -0.166 | [4] 0.022 | [5] -0.075 | [6] -0.011

PCYOX1 (UniProt Q9UHG3)
inactive: nilotinib 0.075 | [1] 0.044 | dasatinib 0.111 | [2] -0.031 | [3] -0.123 | quisinostat 0.006 | tipifarnib -0.025 | [4] -0.002 | [5] -0.01 | [6] 0.015

PDCD2L (UniProt Q9BRP1)
inactive: nilotinib -0.011 | [1] 0.061 | dasatinib 0.006 | [2] 0.023 | [3] -0.041 | quisinostat -0.087 | tipifarnib -0.024 | [4] 0.024 | [5] -0.009 | [6] -0.011

Copied from above (2 entries):
PCYOX1 (UniProt Q9UHG3)
inactive: nilotinib 0.075 | [1] 0.044 | dasatinib 0.111 | [2] -0.031 | [3] -0.123 | quisinostat 0.006 | tipifarnib -0.025 | [4] -0.002 | [5] -0.01 | [6] 0.015

PDCD2L (UniProt Q9BRP1)
inactive: nilotinib -0.011 | [1] 0.061 | dasatinib 0.006 | [2] 0.023 | [3] -0.041 | quisinostat -0.087 | tipifarnib -0.024 | [4] 0.024 | [5] -0.009 | [6] -0.011

Continued.

PDLIM4 (UniProt P50479)
inactive: nilotinib 0.02 | [1] 0.005 | dasatinib 0.007 | [2] 0.049 | [3] -0.004 | quisinostat 0.065 | tipifarnib 0.019 | [4] -0.001 | [5] 0.018 | [6] -0.018

PDCL3 (UniProt Q9H2J4)
inactive: nilotinib 0.019 | [1] -0.024 | dasatinib 0.013 | [2] -0.02 | [3] 0 | quisinostat -0.005 | tipifarnib -0.003 | [4] -0.011 | [5] -0.008 | [6] -0.014

PDCD4 (UniProt Q53EL6)
inactive: nilotinib 0.028 | [1] 0.019 | dasatinib -0.026 | [2] 0.035 | [3] 0.005 | quisinostat -0.044 | tipifarnib -0.008 | [4] -0.01 | [5] 0.009 | [6] -0.013

PFN1 (UniProt P07737)
inactive: nilotinib -0.002 | [1] 0.002 | dasatinib 0.022 | [2] -0.008 | [3] -0.006 | quisinostat 0.008 | tipifarnib 0.03 | [4] -0.018 | [5] -0.018 | [6] 0.014

PDE2A (UniProt O00408)
inactive: nilotinib 0.021 | [1] -0.033 | dasatinib 0.042 | [2] -0.008 | [3] 0.035 | quisinostat 0.026 | tipifarnib 0.042 | [4] 0.006 | [5] 0.08 | [6] -0.184

PARP4 (UniProt Q9UKK3)
inactive: nilotinib 0.054 | [1] -0.144 | dasatinib 0.104 | [2] -0.076 | [3] -0.025 | quisinostat 0.026 | tipifarnib -0.153 | [4] 0.041 | [5] -0.136 | [6] -0.042

PDF (UniProt Q9HBH1)
inactive: nilotinib 0.014 | [1] 0.002 | dasatinib -0.037 | [2] 0.02 | [3] 0.067 | quisinostat -0.064 | tipifarnib -0.012 | [4] 0.022 | [5] -0.034 | [6] 0.056

PASK (UniProt Q96RG2)
inactive: nilotinib 0.046 | [1] 0.002 | dasatinib -0.023 | [2] 0.009 | [3] 0.005 | quisinostat -0.065 | tipifarnib -0.037 | [4] 0.012 | [5] 0.006 | [6] -0.021

PAXX (UniProt Q9BUH6)
inactive: nilotinib 0.007 | [1] 0.038 | dasatinib 0.043 | [2] -0.028 | [3] -0.012 | quisinostat -0.048 | tipifarnib 0.019 | [4] 0 | [5] 0.012 | [6] 0.001

PEPD (UniProt P12955)
inactive: nilotinib 0.121 | [1] -0.023 | dasatinib 0.037 | [2] -0.02 | [3] -0.04 | quisinostat -0.032 | tipifarnib 0.039 | [4] 0.021 | [5] -0.022 | [6] -0.027

PARP16 isoform 3 (UniProt Q8N5Y8)
inactive: nilotinib -0.055 | [1] -0.036 | dasatinib -0.012 | [2] 0.051 | [3] 0.028 | quisinostat 0.039 | tipifarnib 0.21 | [4] 0.021 | [5] 0.035 | [6] 0.049

PCGF6 (UniProt Q9BYE7)
inactive: nilotinib 0.038 | [1] -0.016 | dasatinib 0.028 | [2] -0.08 | [3] 0.037 | quisinostat 0.052 | tipifarnib 0.053 | [4] 0.174 | [5] 0.015 | [6] 0.147

PDE4DIP isoform 4 (UniProt Q5VU43)
inactive: nilotinib -0.026 | [1] 0.004 | dasatinib 0.007 | [2] -0.015 | [3] -0.029 | quisinostat -0.083 | tipifarnib -0.032 | [4] -0.018 | [5] -0.034 | [6] -0.011

PDS5A (UniProt Q29RF7)
inactive: nilotinib -0.013 | [1] -0.002 | dasatinib -0.081 | [2] -0.003 | [3] 0.008 | quisinostat -0.113 | tipifarnib 0.001 | [4] 0.047 | [5] 0.011 | [6] -0.023

PBLD (UniProt P30039)
inactive: nilotinib 0.01 | [1] -0.036 | dasatinib 0.097 | [2] 0.04 | [3] -0.035 | quisinostat -0.126 | tipifarnib 0.035 | [4] -0.03 | [5] 0.032 | [6] 0.005

PGAM1 (UniProt P18669)
inactive: nilotinib 0.028 | [1] 0.02 | dasatinib 0.02 | [2] -0.009 | [3] -0.066 | quisinostat -0.004 | tipifarnib 0.021 | [4] -0.021 | [5] -0.065 | [6] 0.015

PER3 isoform 2 (UniProt P56645)
inactive: nilotinib 0.056 | [1] -0.041 | dasatinib 0.058 | [2] -0.01 | [3] 0.008 | quisinostat 0.085 | tipifarnib 0.03 | [4] 0.003 | [5] -0.016 | [6] 0.022

PCSK9 (UniProt Q8NBP7)
inactive: nilotinib 0.016 | [1] -0.015 | dasatinib -0.046 | [2] 0.036 | [3] 0.08 | quisinostat -0.021 | tipifarnib -0.034 | [4] 0.018 | [5] -0.027 | [6] -0.022

PFDN1 (UniProt O60925)
inactive: nilotinib 0.036 | [1] 0.022 | dasatinib 0.021 | [2] 0.063 | [3] -0.007 | quisinostat 0.068 | tipifarnib 0.076 | [4] -0.079 | [5] -0.044 | [6] 0.031

PELO (UniProt Q9BRX2)
inactive: nilotinib 0.012 | [1] -0.025 | dasatinib 0.052 | [2] -0.026 | [3] 0.032 | quisinostat -0.022 | tipifarnib 0.007 | [4] 0.037 | [5] 0.018 | [6] -0.029

PDHA1 isoform 4 (UniProt P08559)
inactive: nilotinib -0.029 | [1] -0.017 | dasatinib -0.011 | [2] -0.036 | [3] 0.038 | quisinostat -0.037 | tipifarnib 0.02 | [4] 0.005 | [5] 0.017 | [6] -0.015

PGGHG (UniProt Q32M88)
inactive: nilotinib 0.04 | [1] -0.045 | dasatinib -0.009 | [2] -0.088 | [3] -0.004 | quisinostat 0.022 | tipifarnib -0.093 | [4] -0.014 | [5] -0.009 | [6] -0.077

PBK (UniProt Q96KB5)
inactive: nilotinib -0.01 | [1] 0.006 | dasatinib -0.035 | [2] 0.017 | [3] 0.017 | quisinostat -0.02 | tipifarnib 0.033 | [4] 0.032 | [5] 0.017 | [6] 0.024

PECAM1 (UniProt P16284)
inactive: nilotinib 0.021 | [1] -0.03 | dasatinib -0.055 | [2] 0.03 | [3] -0.023 | quisinostat -0.045 | tipifarnib -0.053 | [4] 0.008 | [5] -0.013 | [6] -0.001

PDPR (UniProt Q8NCN5)
inactive: nilotinib 0.012 | [1] 0.018 | dasatinib -0.006 | [2] -0.002 | [3] 0.008 | quisinostat -0.027 | tipifarnib -0.014 | [4] 0.025 | [5] 0.019 | [6] -0.054
